Measurements reported in the supplement of paper PMC10849652.
The other results are listed elsewhere or left out.

Protein sequences, listed by entry. Tags and fused reporters are not part of them. Lines headed by an entry give the natural chain unless they say otherwise; changes in a name come on top.
UniProt Q06546: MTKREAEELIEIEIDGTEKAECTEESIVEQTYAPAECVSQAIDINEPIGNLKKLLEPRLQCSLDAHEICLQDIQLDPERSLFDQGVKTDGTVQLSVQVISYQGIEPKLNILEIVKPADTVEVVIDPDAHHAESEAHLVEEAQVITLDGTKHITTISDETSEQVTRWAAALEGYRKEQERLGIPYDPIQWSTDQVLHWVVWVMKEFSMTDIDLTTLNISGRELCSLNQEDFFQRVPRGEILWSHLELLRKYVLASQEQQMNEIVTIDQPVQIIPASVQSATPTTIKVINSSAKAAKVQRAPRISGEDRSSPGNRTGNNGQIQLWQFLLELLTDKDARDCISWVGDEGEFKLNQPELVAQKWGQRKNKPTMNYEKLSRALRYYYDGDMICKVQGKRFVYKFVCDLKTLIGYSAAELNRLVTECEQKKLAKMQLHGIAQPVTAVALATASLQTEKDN
UniProt P04066: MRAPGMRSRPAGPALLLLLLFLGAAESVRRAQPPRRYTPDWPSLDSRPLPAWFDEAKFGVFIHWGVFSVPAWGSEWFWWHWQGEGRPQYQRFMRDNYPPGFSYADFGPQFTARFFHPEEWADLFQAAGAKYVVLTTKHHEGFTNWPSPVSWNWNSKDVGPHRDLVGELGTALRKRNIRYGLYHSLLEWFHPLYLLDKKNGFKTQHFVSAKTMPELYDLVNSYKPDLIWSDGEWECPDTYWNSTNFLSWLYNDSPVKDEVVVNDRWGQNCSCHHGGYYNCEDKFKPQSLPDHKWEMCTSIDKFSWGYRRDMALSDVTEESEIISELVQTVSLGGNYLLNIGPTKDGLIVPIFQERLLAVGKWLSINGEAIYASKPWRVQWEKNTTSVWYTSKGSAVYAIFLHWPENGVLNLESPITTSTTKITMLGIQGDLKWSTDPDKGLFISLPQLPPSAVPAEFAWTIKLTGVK
UniProt O14893: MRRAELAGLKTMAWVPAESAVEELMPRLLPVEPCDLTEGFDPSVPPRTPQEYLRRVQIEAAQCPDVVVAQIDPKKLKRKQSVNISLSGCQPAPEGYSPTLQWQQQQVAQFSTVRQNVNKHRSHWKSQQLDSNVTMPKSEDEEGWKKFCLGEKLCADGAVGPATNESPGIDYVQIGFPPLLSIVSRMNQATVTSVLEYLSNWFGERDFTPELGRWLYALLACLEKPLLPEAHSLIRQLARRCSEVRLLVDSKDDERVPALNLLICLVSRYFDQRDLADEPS
UniProt Q9UQC2, whole entry, looked up: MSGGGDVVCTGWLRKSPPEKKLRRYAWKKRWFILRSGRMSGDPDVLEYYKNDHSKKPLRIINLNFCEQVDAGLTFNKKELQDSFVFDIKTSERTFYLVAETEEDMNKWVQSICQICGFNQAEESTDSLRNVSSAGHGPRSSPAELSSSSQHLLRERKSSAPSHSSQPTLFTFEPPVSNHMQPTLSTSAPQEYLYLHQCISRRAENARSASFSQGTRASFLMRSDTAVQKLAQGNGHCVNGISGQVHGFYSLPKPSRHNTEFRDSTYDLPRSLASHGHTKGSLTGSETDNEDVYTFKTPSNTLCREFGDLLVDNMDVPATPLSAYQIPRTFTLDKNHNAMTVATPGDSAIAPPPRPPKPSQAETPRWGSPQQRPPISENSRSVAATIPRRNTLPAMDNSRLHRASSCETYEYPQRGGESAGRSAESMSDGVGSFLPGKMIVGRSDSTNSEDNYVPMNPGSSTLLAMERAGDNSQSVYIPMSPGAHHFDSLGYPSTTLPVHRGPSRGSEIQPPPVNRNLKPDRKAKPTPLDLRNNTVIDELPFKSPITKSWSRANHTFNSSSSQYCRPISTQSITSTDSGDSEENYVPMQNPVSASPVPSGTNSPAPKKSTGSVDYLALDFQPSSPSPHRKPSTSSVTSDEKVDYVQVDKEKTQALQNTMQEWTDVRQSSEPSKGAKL
UniProt Q96NB1: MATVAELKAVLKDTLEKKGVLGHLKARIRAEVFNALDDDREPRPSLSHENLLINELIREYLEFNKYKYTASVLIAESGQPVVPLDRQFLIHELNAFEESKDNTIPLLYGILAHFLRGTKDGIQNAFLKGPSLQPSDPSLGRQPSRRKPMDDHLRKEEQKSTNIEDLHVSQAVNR
UniProt P51570: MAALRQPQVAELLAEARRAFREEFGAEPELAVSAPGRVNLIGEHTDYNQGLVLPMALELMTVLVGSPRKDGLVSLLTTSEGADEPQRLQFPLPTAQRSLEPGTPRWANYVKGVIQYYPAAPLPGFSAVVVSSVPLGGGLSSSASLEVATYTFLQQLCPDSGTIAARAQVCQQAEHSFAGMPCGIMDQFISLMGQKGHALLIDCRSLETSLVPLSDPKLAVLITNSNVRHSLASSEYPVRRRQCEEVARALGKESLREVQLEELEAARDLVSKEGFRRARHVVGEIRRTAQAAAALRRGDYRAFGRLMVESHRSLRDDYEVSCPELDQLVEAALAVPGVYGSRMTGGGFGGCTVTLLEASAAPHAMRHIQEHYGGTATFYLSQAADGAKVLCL
UniProt Q14C86: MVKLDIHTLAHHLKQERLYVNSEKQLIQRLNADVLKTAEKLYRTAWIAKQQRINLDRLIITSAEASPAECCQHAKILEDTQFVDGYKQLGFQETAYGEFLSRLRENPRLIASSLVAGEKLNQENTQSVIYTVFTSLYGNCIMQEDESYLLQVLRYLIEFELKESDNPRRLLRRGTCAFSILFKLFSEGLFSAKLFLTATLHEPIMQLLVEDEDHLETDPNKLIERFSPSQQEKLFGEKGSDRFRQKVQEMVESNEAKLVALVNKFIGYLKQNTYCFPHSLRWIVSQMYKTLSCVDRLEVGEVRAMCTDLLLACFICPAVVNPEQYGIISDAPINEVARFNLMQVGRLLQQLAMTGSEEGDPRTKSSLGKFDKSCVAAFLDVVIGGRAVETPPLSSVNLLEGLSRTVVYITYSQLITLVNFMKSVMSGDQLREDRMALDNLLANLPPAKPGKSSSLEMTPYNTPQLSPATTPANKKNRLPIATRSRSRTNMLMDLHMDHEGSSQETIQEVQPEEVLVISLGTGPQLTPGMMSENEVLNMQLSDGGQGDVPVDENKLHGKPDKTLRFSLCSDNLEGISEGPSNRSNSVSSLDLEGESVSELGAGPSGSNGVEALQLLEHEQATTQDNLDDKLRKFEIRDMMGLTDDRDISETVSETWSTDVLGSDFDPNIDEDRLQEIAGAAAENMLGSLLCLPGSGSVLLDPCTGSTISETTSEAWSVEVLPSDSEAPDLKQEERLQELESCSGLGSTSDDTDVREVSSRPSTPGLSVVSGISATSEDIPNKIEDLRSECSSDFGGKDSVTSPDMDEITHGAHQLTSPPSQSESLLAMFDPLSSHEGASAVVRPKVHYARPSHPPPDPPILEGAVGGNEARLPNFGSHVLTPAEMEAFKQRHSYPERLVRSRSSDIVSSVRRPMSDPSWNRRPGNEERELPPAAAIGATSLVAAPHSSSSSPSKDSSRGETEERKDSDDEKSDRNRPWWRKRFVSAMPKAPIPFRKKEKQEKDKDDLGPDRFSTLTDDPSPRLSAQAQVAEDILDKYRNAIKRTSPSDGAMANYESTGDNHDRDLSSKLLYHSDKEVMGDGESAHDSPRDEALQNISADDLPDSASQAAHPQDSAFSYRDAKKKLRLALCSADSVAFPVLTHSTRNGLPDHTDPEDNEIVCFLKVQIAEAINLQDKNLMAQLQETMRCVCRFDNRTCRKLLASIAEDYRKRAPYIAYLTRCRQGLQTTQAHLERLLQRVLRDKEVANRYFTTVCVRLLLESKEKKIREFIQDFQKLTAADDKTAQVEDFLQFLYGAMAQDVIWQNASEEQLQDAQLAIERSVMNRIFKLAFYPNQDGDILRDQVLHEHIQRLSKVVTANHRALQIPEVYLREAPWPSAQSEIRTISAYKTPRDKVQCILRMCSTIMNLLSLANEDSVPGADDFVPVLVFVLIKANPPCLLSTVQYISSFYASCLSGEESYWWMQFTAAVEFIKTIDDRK
UniProt P54803: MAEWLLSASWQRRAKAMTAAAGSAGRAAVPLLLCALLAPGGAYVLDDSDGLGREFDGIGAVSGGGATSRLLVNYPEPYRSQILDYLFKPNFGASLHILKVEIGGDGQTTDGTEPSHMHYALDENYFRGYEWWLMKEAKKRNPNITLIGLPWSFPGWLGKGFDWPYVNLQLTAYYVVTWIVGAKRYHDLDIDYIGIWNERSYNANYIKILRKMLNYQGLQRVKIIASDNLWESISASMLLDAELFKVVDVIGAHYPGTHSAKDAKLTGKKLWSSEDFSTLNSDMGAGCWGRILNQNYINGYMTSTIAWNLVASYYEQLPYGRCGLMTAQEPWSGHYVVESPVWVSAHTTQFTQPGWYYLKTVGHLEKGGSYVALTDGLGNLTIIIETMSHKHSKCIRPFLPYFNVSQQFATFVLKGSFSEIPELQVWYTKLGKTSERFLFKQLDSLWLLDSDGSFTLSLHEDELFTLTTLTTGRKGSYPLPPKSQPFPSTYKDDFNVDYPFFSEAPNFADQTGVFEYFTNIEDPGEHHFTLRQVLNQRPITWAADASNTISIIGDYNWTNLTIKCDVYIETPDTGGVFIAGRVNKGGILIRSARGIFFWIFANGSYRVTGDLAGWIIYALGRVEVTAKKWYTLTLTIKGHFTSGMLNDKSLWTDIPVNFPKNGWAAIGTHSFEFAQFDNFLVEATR
UniProt Q9H0R8, whole entry, looked up: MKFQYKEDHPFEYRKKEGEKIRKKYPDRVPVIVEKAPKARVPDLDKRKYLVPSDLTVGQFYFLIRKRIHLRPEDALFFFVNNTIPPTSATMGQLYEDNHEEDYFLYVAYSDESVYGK
UniProt P15976: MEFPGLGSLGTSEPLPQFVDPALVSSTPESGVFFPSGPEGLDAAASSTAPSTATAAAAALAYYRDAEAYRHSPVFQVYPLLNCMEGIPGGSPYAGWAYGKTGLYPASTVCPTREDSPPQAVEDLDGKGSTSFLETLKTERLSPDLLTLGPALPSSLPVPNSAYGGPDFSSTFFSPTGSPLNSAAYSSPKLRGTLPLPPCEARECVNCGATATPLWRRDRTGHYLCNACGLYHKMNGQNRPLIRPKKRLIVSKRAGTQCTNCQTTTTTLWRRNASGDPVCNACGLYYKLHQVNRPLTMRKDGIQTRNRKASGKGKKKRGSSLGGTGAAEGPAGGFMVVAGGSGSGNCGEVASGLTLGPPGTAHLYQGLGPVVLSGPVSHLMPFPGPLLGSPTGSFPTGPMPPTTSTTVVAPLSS
UniProt Q92947: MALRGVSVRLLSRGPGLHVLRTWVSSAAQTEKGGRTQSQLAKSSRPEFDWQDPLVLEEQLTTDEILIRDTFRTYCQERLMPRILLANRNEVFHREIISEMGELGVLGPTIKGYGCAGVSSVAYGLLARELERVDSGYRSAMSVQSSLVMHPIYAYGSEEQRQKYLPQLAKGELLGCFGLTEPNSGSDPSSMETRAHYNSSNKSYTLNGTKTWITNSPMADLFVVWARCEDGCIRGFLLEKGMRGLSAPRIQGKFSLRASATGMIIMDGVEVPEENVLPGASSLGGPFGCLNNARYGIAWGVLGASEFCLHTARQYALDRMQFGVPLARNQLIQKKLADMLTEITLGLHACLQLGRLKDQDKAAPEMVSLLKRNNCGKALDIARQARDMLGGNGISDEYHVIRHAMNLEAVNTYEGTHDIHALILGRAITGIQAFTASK
UniProt P23434: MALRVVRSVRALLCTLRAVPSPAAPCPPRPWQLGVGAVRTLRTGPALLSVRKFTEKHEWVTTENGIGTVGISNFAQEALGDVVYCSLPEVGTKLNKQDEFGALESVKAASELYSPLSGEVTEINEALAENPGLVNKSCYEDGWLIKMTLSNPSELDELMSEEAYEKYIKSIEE
UniProt P60520, whole entry, looked up: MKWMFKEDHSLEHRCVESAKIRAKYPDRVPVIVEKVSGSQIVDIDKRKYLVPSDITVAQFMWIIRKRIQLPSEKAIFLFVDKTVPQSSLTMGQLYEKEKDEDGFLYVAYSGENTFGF
UniProt P85037: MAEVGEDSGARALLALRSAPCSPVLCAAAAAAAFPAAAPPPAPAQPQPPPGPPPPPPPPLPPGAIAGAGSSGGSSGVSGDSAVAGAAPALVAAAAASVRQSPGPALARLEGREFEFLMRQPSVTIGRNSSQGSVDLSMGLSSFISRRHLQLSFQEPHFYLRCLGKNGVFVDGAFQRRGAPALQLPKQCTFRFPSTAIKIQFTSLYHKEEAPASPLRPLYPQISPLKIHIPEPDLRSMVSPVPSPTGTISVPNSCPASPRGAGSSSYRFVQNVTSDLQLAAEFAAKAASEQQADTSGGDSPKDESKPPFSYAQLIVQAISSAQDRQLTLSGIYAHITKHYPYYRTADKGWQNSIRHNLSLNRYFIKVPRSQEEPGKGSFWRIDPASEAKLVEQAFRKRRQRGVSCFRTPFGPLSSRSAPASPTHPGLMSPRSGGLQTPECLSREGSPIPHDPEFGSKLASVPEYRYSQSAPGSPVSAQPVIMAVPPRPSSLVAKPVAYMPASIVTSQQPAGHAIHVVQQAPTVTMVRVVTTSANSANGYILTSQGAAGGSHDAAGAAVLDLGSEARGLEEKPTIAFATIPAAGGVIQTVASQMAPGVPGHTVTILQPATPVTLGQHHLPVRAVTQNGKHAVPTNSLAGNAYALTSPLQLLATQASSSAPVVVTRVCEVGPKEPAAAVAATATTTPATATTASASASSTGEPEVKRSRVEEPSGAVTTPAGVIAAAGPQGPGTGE

Experiments:
Experiment in all cases: log2 fold change, soluble protein after heating vs DMSO (PISA); higher = thermal stabilisation; K562 cells, 10 uM, 30 min; active = over 0.2 and 3.5 SD of the protein, either way, in both replicates (recomputed)
[1] = compound: CS(=O)(=O)c1ccc(-c2cnc(N)c(C(=O)Nc3ccccc3)n2)cc1
Procedure, shortened: (§1)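 Thermal stability values are relative to control samples and come from duplicates. They are expressed as log2 fold changes. For measurement, K562 cells (2×10^6 cells/mL) received 10 μM compound for 30 min, and aliquots were heated for 3 min over 48°C-58°C, pooled, and extracted at 4°C in PBS with 0.5% NP-40. Soluble protein, the supernatant after 21,000xg for 90 min, was quantified by TMTpro 16plex LC-MS/MS with equalised channel sums.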

[2] = compound: C[C@@H](Oc1cc(-c2cnn(C3CCNCC3)c2)cnc1N)c1c(Cl)ccc(F)c1Cl [crizotinib]
Procedure, shortened: as §1

[3] = compound: C[C@@H]1COCCN1C2=NC(=NC(=C2)C3(CC3)S(=O)(=O)C)C4=C5C=CNC5=CC=C4
Procedure, shortened: as §1

[4] = compound: C[C@H](C1=CC=C(C=C1)C(=O)NC2=C3C=CNC3=NC=C2)N
Procedure, shortened: as §1

[5] = compound: Cc1cc(Nc2cc(CN3CCOCC3)c3nc(C)c(Cc4ccc(Cl)cc4F)n3n2)n[nH]1 [gandotinib]
Procedure, shortened: as §1

[6] = compound: Cc1cc(SCc2sc(-c3ccc(C(F)(F)F)cc3)nc2C)ccc1OCC(=O)O
Procedure, shortened: as §1

[7] = compound: Cc1ccc(-n2nc(C(C)(C)C)cc2NC(=O)Nc2ccc(OCCN3CCOCC3)c3ccccc23)cc1 [doramapimod]
Procedure, shortened: as §1

[8] = compound: Cc1ccc(C(=O)N(CCCN)[C@@H](c2nc3cc(Cl)ccc3c(=O)n2Cc2ccccc2)C(C)C)cc1 [ispinesib]
Procedure, shortened: as §1

[9] = compound: Cc1ccc(NC(=O)c2ccc(CN3CC[C@H](N(C)C)C3)c(C(F)(F)F)c2)cc1Nc1nccc(-c2cncnc2)n1 [bafetinib]
Procedure, shortened: as §1

[10] = compound: Cc1cccc(CC(=O)N2CCc3c2ccc(-c2cn(C)c4ncnc(N)c24)c3F)n1
Procedure, shortened: as §1

[11] = compound: Cc1cn(-c2cc(NC(=O)c3ccc(C)c(Nc4nccc(-c5cccnc5)n4)c3)cc(C(F)(F)F)c2)cn1 [nilotinib]
Procedure, shortened: as §1

[12] = compound: Cc1nc(Nc2n[nH]c3c2CN(C(=O)N[C@H](CN(C)C)c2ccccc2)C3(C)C)c2sccc2n1
Procedure, shortened: as §1

[13] = compound: Cc1nc(Nc2ncc(C(=O)Nc3c(C)cccc3Cl)s2)cc(N2CCN(CCO)CC2)n1 [dasatinib]
Procedure, shortened: as §1

[14] = compound: Cc1ncc(-c2ccnc(Nc3ccc(S(C)(=O)=O)cc3)n2)n1C(C)C
Procedure, shortened: as §1

[15] = compound: Cn1cc(-c2ccc3c(c2)CCN3C(=O)Cc2cccc(C(F)(F)F)c2)c2c(N)ncnc21
Procedure, shortened: as §1

[16] = compound: Cn1cc(-c2ccc3nnc(C(F)(F)c4ccc5ncccc5c4)n3n2)cn1
Procedure, shortened: as §1

[17] = compound: Cn1cncc1[C@@](N)(c1ccc(Cl)cc1)c1ccc2c(c1)c(-c1cccc(Cl)c1)cc(=O)n2C [tipifarnib]
Procedure, shortened: as §1

[18] = compound: FC(F)(F)c1ccc(/C=C/c2nc(COc3ccc(CCCCn4ccnn4)cc3)co2)cc1 [mubritinib]
Procedure, shortened: as §1

[19] = compound: C[C@H](Nc1ncnc2nc[nH]c12)c1cc2cccc(Cl)c2c(=O)n1-c1ccccc1 [duvelisib]
Procedure, shortened: as §1

[20] = compound: Cc1cc(Nc2cc(N3CCN(C)CC3)nc(Sc3ccc(NC(=O)C4CC4)cc3)n2)n[nH]1 [tozasertib]
Procedure, shortened: as §1

Measured: log2 fold change

GALNT1 (UniProt Q10472)
inactive: [1] 0.014 | [2] -0.012 | [3] 0.019 | [4] -0.013 | [5] 0.012 | [6] 0.004 | [7] 0.026 | [8] 0.048 | [9] -0.053 | [10] -0.065 | [11] -0.059 | [12] 0.014 | [13] 0.014 | [14] 0.142 | [15] 0.1 | [16] -0.093 | [17] 0.019 | [18] 0.029

GABPA (UniProt Q06546)
inactive: [1] 0.059 | [2] -0.028 | [3] 0.126 | [4] 0.012 | [5] -0.029 | [6] 0.068 | [7] -0.018 | [8] -0.099 | [9] -0.036 | [10] 0.034 | [11] -0.103 | [12] -0.115 | [13] -0.12 | [14] -0.026 | [15] 0.048 | [16] 0.111 | [17] -0.149 | [18] 0.019

FUCA1 (UniProt P04066)
active: [9] -1.16
inactive: [1] 0.019 | [2] -0.079 | [3] 0.031 | [4] -0.049 | [5] 0 | [6] -0.044 | [7] 0.021 | [8] -0.007 | [10] -0.001 | [11] -0.011 | [12] -0.01 | [13] -0.009 | [14] -0.014 | [15] -0.054 | [16] 0.011 | [17] -0.001 | [18] -0.008

GEMIN2 (UniProt O14893)
inactive: [1] 0.032 | [2] -0.043 | [3] 0.001 | [4] 0.061 | [5] 0.02 | [6] -0.013 | [7] 0.029 | [8] -0.149 | [9] -0.154 | [10] -0.124 | [11] -0.045 | [12] 0 | [13] 0.049 | [14] -0.027 | [15] -0.039 | [16] -0.095 | [17] 0.08 | [18] -0.048

GAB2 (UniProt Q9UQC2)
active: [2] -0.899 | [19] -0.836
inactive: [1] -0.084 | [3] -0.361 | [4] 0.033 | [5] -0.071 | [6] 0.181 | [7] 0.118 | [8] -0.511 | [10] 0 | [13] -0.599 | [15] 0.002 | [16] 0 | [17] 0.175 | [18] 0.075

FOPNL (UniProt Q96NB1)
inactive: [1] -0.063 | [2] -0.049 | [3] -0.329 | [4] -0.042 | [19] 0.025 | [5] 0.189 | [20] 0.012 | [6] 0.093 | [7] 0.125 | [9] -0.068 | [10] -0.145 | [11] 0.28 | [12] 0.468 | [13] 0.02 | [14] -0.247 | [15] -0.113 | [17] 0.045 | [18] 0.051

GAGE12F (UniProt P0CL80)
active: [10] -0.284
inactive: [1] 0.019 | [2] 0.034 | [3] 0.092 | [4] 0.081 | [5] 0.072 | [6] 0.03 | [7] 0.043 | [8] 0.009 | [9] -0.092 | [11] 0.052 | [12] -0.085 | [13] 0.009 | [14] -0.015 | [15] -0.004 | [16] -0.035 | [17] 0.053 | [18] 0.085

GALK1 isoform 2 (UniProt P51570)
inactive: [1] -0.1 | [2] -0.041 | [3] 0.037 | [4] -0.088 | [5] -0.087 | [6] 0.056 | [7] 0.012 | [8] 0.078 | [9] 0.061 | [10] 0.062 | [11] -0.018 | [12] -0.001 | [13] -0.043 | [14] -0.015 | [15] 0.055 | [16] -0.084 | [17] -0.136 | [18] 0.01

GAPVD1 isoform 6 (UniProt Q14C86)
inactive: [1] -0.012 | [2] -0.145 | [3] 0.017 | [4] 0.075 | [5] -0.081 | [6] 0.147 | [7] 0.038 | [8] -0.133 | [9] 0.023 | [10] 0.072 | [11] -0.09 | [12] -0.092 | [13] -0.15 | [14] -0.017 | [15] -0.043 | [16] -0.016 | [17] -0.135 | [18] 0.028

Looked up one by one from the entries so far, 2 records:
GALK1 isoform 2 (UniProt P51570)
inactive: [1] -0.1 | [2] -0.041 | [3] 0.037 | [4] -0.088 | [5] -0.087 | [6] 0.056 | [7] 0.012 | [8] 0.078 | [9] 0.061 | [10] 0.062 | [11] -0.018 | [12] -0.001 | [13] -0.043 | [14] -0.015 | [15] 0.055 | [16] -0.084 | [17] -0.136 | [18] 0.01

FOPNL (UniProt Q96NB1)
inactive: [1] -0.063 | [2] -0.049 | [3] -0.329 | [4] -0.042 | [19] 0.025 | [5] 0.189 | [20] 0.012 | [6] 0.093 | [7] 0.125 | [9] -0.068 | [10] -0.145 | [11] 0.28 | [12] 0.468 | [13] 0.02 | [14] -0.247 | [15] -0.113 | [17] 0.045 | [18] 0.051

Further entries follow:

GALC (UniProt P54803)
inactive: [1] 0.03 | [2] -0.023 | [3] 0.03 | [4] -0.012 | [5] 0.008 | [6] 0 | [7] -0.01 | [8] -0.135 | [10] 0.084 | [11] 0.008 | [12] 0.045 | [13] 0.096 | [14] 0.01 | [15] 0.004 | [16] 0.065 | [17] 0.126 | [18] -0.005
active: [9] -0.507

GABARAPL1 isoform 2 (UniProt Q9H0R8)
active: [2] -0.344 | [8] -0.315
inactive: [1] 0.105 | [3] 0.048 | [4] -0.045 | [5] 0.078 | [6] 0.026 | [7] -0.034 | [9] -0.171 | [10] 0.006 | [11] -0.05 | [12] -0.028 | [13] -0.031 | [14] 0.017 | [15] -0.016 | [16] 0.003 | [17] -0.075 | [18] 0.044

GATA1 (UniProt P15976)
inactive: [1] 0.03 | [2] 0.16 | [3] -0.032 | [4] 0.046 | [5] 0.112 | [6] -0.071 | [7] 0.017 | [8] -0.063 | [9] -0.09 | [10] 0.007 | [11] 0.028 | [12] 0.033 | [13] 0.157 | [14] -0.008 | [15] -0.084 | [16] -0.017 | [17] -0.015 | [18] -0.033

GCDH (UniProt Q92947)
inactive: [1] 0.004 | [2] 0.058 | [3] 0.112 | [4] -0.032 | [5] 0.076 | [6] -0.021 | [7] -0.012 | [8] 0.041 | [9] -0.047 | [10] 0.007 | [11] 0.002 | [12] 0.017 | [13] -0.059 | [14] -0.001 | [15] 0.08 | [16] -0.129 | [17] -0.007 | [18] -0.028

GCSH (UniProt P23434)
inactive: [1] -0.009 | [2] 0.073 | [3] 0.005 | [4] -0.022 | [5] 0.043 | [6] 0.026 | [7] 0.032 | [8] -0.057 | [9] -0.13 | [10] 0.095 | [11] -0.022 | [12] 0.01 | [13] 0.015 | [14] -0.026 | [15] 0.016 | [16] 0.016 | [17] -0.017 | [18] -0.05

GARS1 (UniProt H7C443)
inactive: [1] 0 | [2] 0.089 | [3] 0.078 | [4] 0.308 | [5] -0.066 | [20] -0.093 | [7] -0.086 | [8] -0.216 | [10] -0.316 | [11] -0.171 | [12] 0.007 | [14] -0.103 | [15] -0.001 | [16] 0.164 | [17] 0.21 | [18] 0.033

GABARAPL2 (UniProt P60520)
inactive: [1] 0.081 | [2] -0.178 | [3] 0.036 | [4] 0.006 | [5] 0.039 | [6] 0.005 | [7] -0.073 | [8] -0.151 | [9] -0.168 | [10] 0.096 | [11] -0.015 | [12] -0.028 | [13] -0.014 | [14] -0.004 | [15] 0.046 | [16] 0.279 | [17] -0.003 | [18] 0.03

FOXK1 (UniProt P85037)
active: [1] -1.1 | [5] -1.34 | [14] -1.19
inactive: [2] 0.336 | [3] 0.897 | [4] -0.482 | [6] -0.148 | [7] -0.126 | [8] 0.373 | [9] 0.03 | [10] 0.052 | [11] 0.487 | [12] -0.816 | [13] 0.128 | [15] 0.312 | [16] 0.184 | [17] 0.008 | [18] 0.03
